No constants are given. Whether binding was seen depends on the method and setting. Some entries that bind do so weakly or less than the wild type.

By UniProt entry, the sequences of proteins in these tests, tags left out. Where a name states a change or a piece, a line headed by the entry shows the natural chain unless it says otherwise. Residues count along the entry.
UniProt Q02242, residues 25-167: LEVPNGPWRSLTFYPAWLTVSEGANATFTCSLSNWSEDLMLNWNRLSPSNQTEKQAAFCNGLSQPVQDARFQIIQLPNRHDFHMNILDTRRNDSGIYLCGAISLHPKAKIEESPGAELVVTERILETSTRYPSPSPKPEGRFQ
UniProt Q15116: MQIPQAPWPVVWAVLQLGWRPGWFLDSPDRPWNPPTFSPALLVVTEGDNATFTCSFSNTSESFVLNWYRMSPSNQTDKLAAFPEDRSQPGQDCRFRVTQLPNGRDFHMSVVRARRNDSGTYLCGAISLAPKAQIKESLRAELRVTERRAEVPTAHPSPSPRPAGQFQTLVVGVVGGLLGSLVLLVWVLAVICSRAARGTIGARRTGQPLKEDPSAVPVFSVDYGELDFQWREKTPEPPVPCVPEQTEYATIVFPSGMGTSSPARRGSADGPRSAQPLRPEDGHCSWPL

The target in assay [1] is human B7-4.Ig fusion protein (murine Ig gamma2a) (human; murine) [IgG part: P01863]. The assay can be described thus: BIACORE, soluble human B7-4.Ig co-injected with soluble mPD-1.Ig over immobilized mPD-1.Ig, hPD-1.Ig and hCTLA-4.Ig. A general note: In SPR one partner is held on a chip, and binding of the other changes the refractive index at the surface.
Assay [2] shares this target. The assay can be described thus: BIACORE, soluble human B7-4.Ig co-injected with soluble hPD-1.Ig over immobilized mPD-1.Ig, hPD-1.Ig and hCTLA-4.Ig.

Regarding “murine PD-1-Fc (from UniProt Q02242 25-167) (Fc fusion)”, in assay [1], the binding result is “binds”. Take “human PD-1.Ig (Ig portion not stated in the experiment) (from UniProt Q15116 25-167) (Fc fusion)”: the binding entry in assay [2] is “binds”.

Values taken from US20030044768A1.
